This note sets out measurements from publication PMC8343996.

Amino acid sequences for entries named in this document (tags omitted).
UniProt P63096: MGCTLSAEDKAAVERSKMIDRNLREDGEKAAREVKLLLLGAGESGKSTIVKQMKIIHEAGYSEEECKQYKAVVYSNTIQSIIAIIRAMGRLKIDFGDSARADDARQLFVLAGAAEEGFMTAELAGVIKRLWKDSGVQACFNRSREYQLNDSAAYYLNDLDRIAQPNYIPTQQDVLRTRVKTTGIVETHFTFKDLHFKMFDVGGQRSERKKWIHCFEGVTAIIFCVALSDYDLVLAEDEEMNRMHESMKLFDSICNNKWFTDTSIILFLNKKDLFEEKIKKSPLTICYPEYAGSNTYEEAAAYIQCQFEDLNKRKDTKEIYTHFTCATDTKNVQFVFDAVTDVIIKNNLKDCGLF
UniProt P08754: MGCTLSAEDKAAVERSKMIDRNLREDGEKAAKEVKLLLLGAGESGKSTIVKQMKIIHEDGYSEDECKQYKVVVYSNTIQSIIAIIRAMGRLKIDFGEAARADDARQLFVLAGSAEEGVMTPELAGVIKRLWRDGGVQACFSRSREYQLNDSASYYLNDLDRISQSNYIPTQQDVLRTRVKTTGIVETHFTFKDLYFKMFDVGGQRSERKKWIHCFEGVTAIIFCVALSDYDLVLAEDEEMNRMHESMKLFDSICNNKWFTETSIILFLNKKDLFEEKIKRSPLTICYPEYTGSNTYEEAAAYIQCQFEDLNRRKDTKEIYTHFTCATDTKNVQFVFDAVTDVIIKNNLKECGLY

The target of this assay is T1, Gab1 (human (endogenous in U251MG)) (UniProt Q13480).
T1 sequence: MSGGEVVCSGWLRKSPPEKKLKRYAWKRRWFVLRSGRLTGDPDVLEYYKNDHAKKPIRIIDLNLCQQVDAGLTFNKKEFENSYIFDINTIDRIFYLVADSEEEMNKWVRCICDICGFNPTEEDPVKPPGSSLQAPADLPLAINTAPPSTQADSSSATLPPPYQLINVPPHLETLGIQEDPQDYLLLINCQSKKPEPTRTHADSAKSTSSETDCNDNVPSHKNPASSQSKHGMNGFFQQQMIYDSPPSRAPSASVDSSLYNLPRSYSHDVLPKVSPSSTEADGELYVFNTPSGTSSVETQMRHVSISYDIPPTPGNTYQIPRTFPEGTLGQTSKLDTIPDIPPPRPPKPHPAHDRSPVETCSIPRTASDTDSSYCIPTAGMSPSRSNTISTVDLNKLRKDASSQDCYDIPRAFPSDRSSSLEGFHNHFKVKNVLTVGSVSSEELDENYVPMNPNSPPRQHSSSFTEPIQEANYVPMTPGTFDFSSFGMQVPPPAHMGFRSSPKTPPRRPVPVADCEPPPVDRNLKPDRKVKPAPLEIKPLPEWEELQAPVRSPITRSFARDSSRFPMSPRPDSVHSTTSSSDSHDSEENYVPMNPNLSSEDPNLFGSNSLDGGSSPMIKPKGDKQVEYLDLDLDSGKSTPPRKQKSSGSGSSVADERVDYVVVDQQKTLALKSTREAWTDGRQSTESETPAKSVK
Description: co-IP; U251MG cells treated with NLGN3 (50 ng/mL) for 5 min; endogenous proteins in lysate, detected by Western blotting; protocol referred to earlier work.

These are yes or no findings as the source states them, for the method shown. Binding seen in cells or lysates may run through a third protein. Some results given as binding are weak or reduced against the parent protein; the word gives no strength.

Take Gαi1 (from UniProt P63096 1-354): the binding entry was “binds”.
Then Gαi3 (from UniProt P08754 1-354), with “binds”.
